# Assay results published in PubChem BioAssay AID1347423 (Functional Genomics Laboratory (NCATS/FGL), 2020).
# Among all 52,000 sequences or so, about 210 (0.4%) were called active.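 Rule for the calls: active = gene whose silencing raises cell survival under the drug, median off-target-corrected z-score across its silencing RNAs 2 or more; inactive = the rest.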 This is one part of the list.
# Experiment: Resistance to Poly (ADP-Ribose) Polymerase inhibitor: Gene Identification via Genome-wide siRNA Screen
# Details: mouse BRCA2 R2336H ES cells, olaparib, CellTiter-Glo viability; stronger effect = higher value
# Summary of the method: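 Genome-wide siRNA screen (3 siRNAs/gene, 20 nM) in mouse ES cells carrying hypomorphic BRCA2 R2336H; olaparib 500 nM added 48 h post-transfection, CellTiter-Glo viability 72 h later. Normalized to plate-median negative control; MAD z-scores, gene median, seed-adjusted.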
row,Sequence,z-score
1,GGCCAGUUCCUUCUAGACUTT against Abhd1,inactive: -0.224
2,GGCAUUGAAGCAUCUGUUCTT against Ly78,inactive: -0.167
3,GGAACCACUGCUUUCAAAATT against Cd36,inactive: -0.0235
4,GGAGCCACUGGAAAAUUUATT against AI507211,inactive: 0.177
5,GGCACAGAUACAUCAAAUATT against Spag9,inactive: -0.685
6,GGUACCAUGAAGGAUUUAUTT against 6330415F13Rik,inactive: -0.515
7,GGACUUGGAAAAUAAGGAATT against Usp38,inactive: -1.16
8,GGGAUGCAUUAUUAUUUACTT against 4632417D23,inactive: 0.676
9,GGGAGAGGAAGAAAAUAAATT against AU022870,inactive: -0.995
10,GGACUUUAAUCACAGACAATT against Fem1b,inactive: -0.572
11,GCUAAGUCCCAGCUAAGUUTT against D4Ertd22e,inactive: -0.958
12,GCCAAACACUUUAUGCGACTT against Ndst4,inactive: -0.165
13,GGCGCAAGUUUGAUUUUGATT against Perq1,inactive: 0.384
14,GGACACUUUCAGACCUUAGTT against Ankrd27,inactive: -2.02
15,CCAGUCAACAAGAAUCAGATT against Rptn,inactive: -0.569
16,GGAUCCUGUCCACAAGCACTT against Astn1,inactive: 0.58
17,GGAGACACAAAAGAAGAUATT against Sec14l4,inactive: -0.672
18,CCCUGAUUGCAUCCUGUUATT against A430093F15Rik,inactive: -0.263
19,GCAGUAAAUGUCCCAUCCGTT against Caskin1,inactive: 1.06
20,GGGAAAUCAAGGAACUUAATT against Lrrfip1,inactive: -1.98
21,GGAUGCAUCUAGCUUCACATT against BC016548,inactive: -0.0982
22,GGACAGAUACUUUUGAUGATT against Zfp386,inactive: 0.423
23,GGCUUUCACCUUAAUUGAUTT against Fntb,inactive: 0.0877
24,GGUGAAGAAGAUGUGGACUTT against Pthr2,inactive: 1.02
25,GGAACUUGACAAAGUCUACTT against Panx1,inactive: -0.0295
26,GGUUGUUUUUUGAUACUGATT against 4732496O08Rik,inactive: -1.02
27,GCCAUUUGUUUAUGGAGGCTT against Spint2,inactive: -0.243
28,CGGGUCGUCUCCUUACACATT against Prdm8,inactive: 0.964
29,GGCUUUAGCAAUGGAAAAUTT against 9130019P20Rik,inactive: -0.235

# Reprinted, entries 8–9
row,Sequence,z-score
8,GGGAUGCAUUAUUAUUUACTT against 4632417D23,inactive: 0.676
9,GGGAGAGGAAGAAAAUAAATT against AU022870,inactive: -0.995
